Source: patent US20220002806A1, “BIOMARKER” (ERBER AKTIENGESELLSCHAFT, priority 2018, published 2022)

Columns and labels:
miRNAs in serum = assay: Targeted qPCR-based miRNA analysis in blood serum of ZEN-exposed piglets; type: in vivo, pig; conditions: Ctrl vs ZEN high group, unadjusted p-value ≤0.1
From the text: (§1) Weaned female piglets (sow: Landrace×Large White, boar: Pietrain; 30+/−2 days old) were obtained from a local producer and individually tagged. Piglets were housed in slatted floor pens under controlled environmental conditions. After an acclimatization period of seven days, twenty-four female piglets were selected based on both body weight and vulva size, and allocated to one of four groups (6 animals/group). Piglets received either blank feed (negative control; Ctrl) or feed contaminated with ZEN in three increasing concentrations (ZEN low: 0.17 mg/kg diet; ZEN medium: 1.5 mg/kg diet; ZEN high: 4.6 mg/kg diet). During the 28-day experimental period, each treatment group was given free access to water and the assigned diet. The pigs were observed daily and weighed weekly.
Blood was collected weekly (d 0, 6, 14, 21 and 28) from individual animals by punctuation of the vena cava cranialis (Primavette® EDTA, Kabe Labortechnik GmbH, Nümbrecht-Elsenroth, Deutschland). After centrifugation (1500×g, 20 min), serum samples were stored at −80° C. for later analysis. Vulva length and width were measured at regular intervals with a caliper to determine the dietary ZEN effects. The vulva area was calculated as vulva length×vulva width, as previously reported (Jiang et al. 2011. Journal of animal science, 89, 3008-3015). Eight measurements were done per piglet over the experimental period. […]

miRNAs in uterus tissue = assay: Small RNA sequencing (RNA-Seq) of miRNAs in uterus tissue of ZEN-exposed piglets; type: in vivo, pig (Sus scrofa); conditions: for number of miRNAs significantly affected in uterus: out of 224 miRNAs, adjusted p ≤0.07
From the text: as §1
After 28 days of dietary exposure to the experimental diets, pigs were anesthetized by intramuscular injection of ketamine (0.1 mL/kg body weight (b.w.) Narketan®, Vétoquinol GmbH, Ravensburg, Germany) and azaperone (0.03 mL/kg b.w.; Stresnil®, Janssen-Cilag, Neuss, Germany). […]
miRNA Extraction and Library Preparation: A total of 18 animals was used for investigations on the miRNA profile in the tissues: 6 from Ctrl, 4 from ZEN low, 4 from ZEN medium, and 4 from ZEN high. […] Barcoded DNA libraries were purified using the QIAQuick PCR purification protocol (Qiagen, Hilden, Germany) and quantified using the DNA 1000 high sensitivity chip (Agilent Technologies, Germany). […]
RNA sequencing (RNA-Seq) Bioinformatics Analysis: Total reads were adapter trimmed using Cutadapt and quality filtered (Q-Score >30) using the FastQC tool. Trimmed and quality filtered reads were aligned to reference miRNA sequences in miRBase release 21 (www.mirbase.org; Kozomora and Griffiths-Jones. 2014. Nucleid Acids Research, 42, D68-D73) using bowtie2. Subsequently, reads were mapped against the Sus scrofa genome assembly Sscrofa10.2 as well as Ensembl small non-coding RNA reference databases. Reads were normalized to the total read count per library to generate tags per million (TPM) values. […]

`C[C@H]1CCCC(=O)CCC/C=C/c2cc(O)cc(O)c2C(=O)O1` [ZEN, (2E,11S)-15,17-dihydroxy-11-methyl-12-oxabicyclo[12.4.0]octadeca-1(18),2,14,16-tetraene-7,13-dione] was tested, and the “number of serum miRNAs showing up- or down-regulation” value (miRNAs in serum; day 6) was “Three”, the “number of serum miRNAs showing up- or down-regulation” value (miRNAs in serum; day 28) was “five” and the “number of miRNAs significantly affected in uterus” value (miRNAs in uterus tissue; ZEN high (4.6 mg/kg diet)) was 74. For the same compound, the “number of miRNAs significantly affected in uterus” value (miRNAs in uterus tissue; ZEN medium (1.5 mg/kg diet)) was 16 and the “number of miRNAs commonly affected in uterus” value (miRNAs in uterus tissue; in ZEN medium and ZEN high group) was 14.
